Assay results reported in patent US20230136941A1, “IMPROVING PLANT NUTRITIONAL VALUE AND GROWTH THROUGH ENHANCEMENT OF ESSENTIAL AMINO ACID LEVELS” (Board of Trustees of Michigan State University, priority 2020, published 2023).
At least one compound was matched to its structure with a doubt left.

What was measured:
[1] = test system: eva1 cotyledon epidermal cells expressing GFP-δTIP; assay: Confocal imaging of vacuole morphology after temporal chemical treatment of eva1 seedlings; type: cell-based, Arabidopsis thaliana; settings: 10-day old seedlings
[2] = test system: wild type (Col-0), eva1, ipms1-4 and ipms1-5 seedlings; assay: Primary root elongation of seedlings germinated and grown on medium containing chemical inhibitors (chronic treatment); type: in vivo, Arabidopsis thaliana; settings: low concentration of wortmannin
Experimental: Except for chronical treatments with specified chemicals, Arabidopsis seeds were stratified and grown on medium containing half-strength Linsmaier and Skoog nutrients (½ LS; Caisson Labs, LSP03), 1% sucrose and 0.4% phytagel (Sigma-Aldrich, P8169) in chambers configured with 21° C. and 16-hour light: 8-hour dark cycle.
In another pharmaceutical examination using AZD-8055, wortmannin and Lat B (FIG. 6A-6G, 6L-6Q), wild type (Col-0), eva1, ipms1-4 and ipms1-5 lines germinated and grew on vertically staged Petri dishes containing Arabidopsis growth medium containing specific chemical inhibitors.

Structure (SMILES) | eva1 vacuolar phenotypes (unfused vacuoles, trans-vacuolar strands) ([1]; 100 μM LY294002, 2 hr) | ipms1 root elongation [2] | eva1 vacuolar phenotypes (unfused vacuoles, trans-vacuolar strands) ([1]; 33 μM wortmannin, two-three hours)
O=c1cc(N2CCOCC2)oc2c(-c3ccccc3)cccc12 [LY294002] | effects of wortmannin were mirrored | – | –
COC[C@H]1OC(=O)c2coc3c2[C@@]1(C)C1=C(C3=O)[C@@H]2CCC(=O)[C@@]2(C)C[C@H]1OC(C)=O [wortmannin] | – | minimal but significant promotion | suppressed the eva1 phenotypes
